The other results are listed elsewhere or left out. Shown are side measurements of this screen, not its main read-out; they come without a call. Most of these compounds were active or inconclusive in the main read-out, so they are no random draw. Words in brackets tell the shape of the fitted curve; partial curves, single points and poor fits give uncertain potencies.
experiment: Cell signaling CRE-BLA (Fsk stim); settings: CHO CRE-bla reporter (cAMP response element driving beta-lactamase), forskolin EC10, beta-lactamase ratio; measured here: 460 nm blue channel
Procedure, shortened: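 CRE-bla CHO reporter cells treated with compound titration plus EC10 NKH 477 (water-soluble forskolin), incubated 3 h at 37 °C; CCF4 loading 2 h at room temperature, 460/530 nm emission ratio read, AC50 values derived for positive or negative modulators.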

Row | Structure (SMILES) | AC50
1 | CN1CCN(CCC(=O)Nc2ccc(OCc3ccccc3)cc2)CC1 | 3.98 µM [falling, partial curve]
2 | CCN(CC)c1nc2ccccc2nc1C(C#N)C(=O)NCCCOC (stereo not drawn) | 7.94 µM [rising, partial curve]
3 | COc1ccc(CNC(=O)C2CCN(C(=O)[C@@H](CC(C)C)NC(=O)OC(C)(C)C)CC2)cc1 | 25.1 µM [rising, single point]
4 | Cc1nc2c(C(=O)NCc3ccco3)cnn2c(C)c1Cc1ccc(F)cc1Cl | 3.16 µM [rising, full curve]
5 | COCCN1C(=O)c2oc3ccccc3c(=O)c2C1c1ccc(O)c(OC)c1 (stereo not drawn) | 10 µM [rising, single point]
6 | COC(=O)[C@@]1(Cc2ccc(F)cc2)[C@H]2c3cc(C(=O)N(C)C)n(Cc4ccc(OC)c(OC)c4)c3C[C@H]2CN1C(=O)c1ccccc1 | 20 µM [rising, partial curve]
7 | Cc1ccc(NC(=O)CNc2cccc(C)c2C)c(C)c1 | 0.501 µM [falling, partial curve]
8 | Cc1ccc(-n2ncc3c(=O)[nH]c(SCC(=O)N4CCCc5ccccc54)nc32)cc1 | 2.51 µM [rising, partial curve]
9 | N#C/C(=C\c1ccc(O)c(O)c1)C(=O)Nc1ccccc1 | 25.1 µM [rising, single point]
10 | Cc1ccc(C)c(CSc2nnc(-c3cccnc3)o2)c1 | 12.6 µM [rising, single point]
11 | COc1ccc(CCNc2nnc(Sc3nnnn3-c3ccccc3)s2)cc1OC | 7.94 µM [rising, partial curve]
12 | COc1ccccc1NC(=O)Cn1cnc2c(oc3ccccc32)c1=O | 12.6 µM [rising, partial curve]
13 | CCC1CCCCN1S(=O)(=O)c1ccc(C(=O)Nc2nnc(-c3cccs3)o2)cc1 (stereo not drawn) | 25.1 µM [falling, single point]
14 | Cc1ccc(Cl)cc1N1CCN(C(=O)c2cn(C)c(=O)c3c2c2ccccc2n3C)CC1 | 0.316 µM [falling, full curve]
15 | CCCCCn1c(CN2CCN(C(=O)OCC)CC2)nc2c1c(=O)[nH]c(=O)n2C | 0.126 µM [rising, full curve, poor fit]
16 | COC(=O)c1ccccc1NC(=O)COc1ccc(S(=O)(=O)N2CCCC2)cc1C | 0.398 µM [rising, partial curve]
17 | O=C1NCCCC1C(=O)N1CCN(C(c2ccccc2)c2ccccc2)CC1 (stereo not drawn) | 0.631 µM [falling, full curve]
18 | CCC(CC)C(=O)NCCNC(=O)C(CC)CC | 2 µM [rising, full curve]
19 | CCCc1nc(SCC(=O)Nc2cc(Cl)ccc2OC)c2c(=O)n(C)c(=O)n(C)c2n1 | 3.16 µM [rising, single point]
20 | Brc1c(CSc2nc3ccccc3o2)nc2ncccn12 | 10 µM [rising, partial curve]
21 | CCc1nnc(NC(=O)CSc2nc3ccccc3s2)s1 | 20 µM [falling, partial curve]
22 | CCCC(c1nnnn1Cc1ccc(OC)cc1)N1CCC(C(N)=O)CC1 (stereo not drawn) | 2.51 µM [falling, partial curve]

Shown as labelled records: entries from further up
CCCc1nc(SCC(=O)Nc2cc(Cl)ccc2OC)c2c(=O)n(C)c(=O)n(C)c2n1
  AC50: 3.16 µM [rising, single point]
Brc1c(CSc2nc3ccccc3o2)nc2ncccn12
  AC50: 10 µM [rising, partial curve]

Next part

Row | Structure (SMILES) | AC50
23 | COCC(=O)NC(C)c1nc2ccccc2[nH]1 (stereo not drawn) | 0.0501 µM [falling, full curve, poor fit]
24 | CCOC(=O)c1c2n(c3ccc(O)cc13)CCC2 | 7.94 µM [rising, partial curve]
25 | COc1ccc(-c2nn(C)c(=O)c3ccccc23)cc1NC(=O)Cn1nc(C)c2ccccc2c1=O | 7.94 µM [rising, partial curve]
26 | C=CCN=C(NC#N)SCc1ccccc1Cl | 12.6 µM [falling, single point]
27 | Cc1cc(NC(=O)CN2CCN(Cc3ccccc3)CC2)nc2c1c(=O)oc1ccccc12 | 12.6 µM [rising, single point]
28 | COc1ccc(CNc2ncnc3ccc(-c4ccc(C(=O)N(C)C)cc4)cc23)c(OC)c1 | 12.6 µM [rising, partial curve]
29 | CCOC(=O)c1cc(C)sc1N1C(=O)C2C3C=CC(C3)C2C1=O (stereo not drawn) | 15.8 µM [rising, single point]
30 | CN(C)c1ncc2nc(-c3ccccc3)c(=O)n(C[C@H]3CCCO3)c2n1 | 5.01 µM [rising, partial curve]
31 | NS(=O)(=O)c1cc(C(=O)O)c(Cl)c([N+](=O)[O-])c1Cl | 2 µM [falling, single point]
32 | Cc1nc(N2CCOCC2)c2cc(-c3ccccc3)sc2n1 | 2.51 µM [falling, single point]
33 | COc1ccc(OC)c(C(C)NC(C)=O)c1 (stereo not drawn) | 0.01 µM [falling, partial curve, poor fit]
34 | COc1ccc(S(=O)(=O)Nc2ccccc2C(=O)NC(C)C)cc1OC | 0.794 µM [falling, full curve, poor fit]
35 | CCCc1cc(-n2ccnc2)n2c(nc3ccccc32)c1C#N | 5.01 µM [falling, partial curve]
36 | COc1ccc(C(=O)N(Cc2nc(-c3ccc(C)cc3)no2)C2CCCCC2)cc1OC | 25.1 µM [rising, single point]
37 | Cc1nn2c3ccccc3nc2n(Cc2ccccc2)c1=O | 3.98 µM [rising, single point]
38 | O=C(NCCN1CCOCC1)c1csc2c1CCCCC2 | 0.0316 µM [falling, full curve, poor fit]
39 | O=C(O)CCCC(=O)Nc1ccc(C(=O)N2CCCCC2)c(Cl)c1 | 0.00316 µM [falling, full curve, poor fit]
40 | CCCCCSc1nnc2c(n1)OC(c1cccn1C)N(C(C)=O)c1ccccc1-2 (stereo not drawn) | 1.26 µM [falling, partial curve]
41 | Cc1ccccc1-c1ccc2ncnc(-n3ccnc3)c2c1 | 12.6 µM [falling, single point]
42 | c1ccc(-c2cccc(-c3ccccn3)n2)nc1 | 15.8 µM [rising, single point]
43 | Cc1cccn2cc(CNC(=O)CC3CCCC3)nc12 | 5.01 µM [falling, single point]

— PubChem BioAssay AID662 (National Center for Advancing Translational Sciences (NCATS), 2007)
